In publication PMC7684319 one finds binding data, which are given here for five molecules.

Sequences of proteins named here, by UniProt entry; tags and fusion partners are left off.
UniProt O15042: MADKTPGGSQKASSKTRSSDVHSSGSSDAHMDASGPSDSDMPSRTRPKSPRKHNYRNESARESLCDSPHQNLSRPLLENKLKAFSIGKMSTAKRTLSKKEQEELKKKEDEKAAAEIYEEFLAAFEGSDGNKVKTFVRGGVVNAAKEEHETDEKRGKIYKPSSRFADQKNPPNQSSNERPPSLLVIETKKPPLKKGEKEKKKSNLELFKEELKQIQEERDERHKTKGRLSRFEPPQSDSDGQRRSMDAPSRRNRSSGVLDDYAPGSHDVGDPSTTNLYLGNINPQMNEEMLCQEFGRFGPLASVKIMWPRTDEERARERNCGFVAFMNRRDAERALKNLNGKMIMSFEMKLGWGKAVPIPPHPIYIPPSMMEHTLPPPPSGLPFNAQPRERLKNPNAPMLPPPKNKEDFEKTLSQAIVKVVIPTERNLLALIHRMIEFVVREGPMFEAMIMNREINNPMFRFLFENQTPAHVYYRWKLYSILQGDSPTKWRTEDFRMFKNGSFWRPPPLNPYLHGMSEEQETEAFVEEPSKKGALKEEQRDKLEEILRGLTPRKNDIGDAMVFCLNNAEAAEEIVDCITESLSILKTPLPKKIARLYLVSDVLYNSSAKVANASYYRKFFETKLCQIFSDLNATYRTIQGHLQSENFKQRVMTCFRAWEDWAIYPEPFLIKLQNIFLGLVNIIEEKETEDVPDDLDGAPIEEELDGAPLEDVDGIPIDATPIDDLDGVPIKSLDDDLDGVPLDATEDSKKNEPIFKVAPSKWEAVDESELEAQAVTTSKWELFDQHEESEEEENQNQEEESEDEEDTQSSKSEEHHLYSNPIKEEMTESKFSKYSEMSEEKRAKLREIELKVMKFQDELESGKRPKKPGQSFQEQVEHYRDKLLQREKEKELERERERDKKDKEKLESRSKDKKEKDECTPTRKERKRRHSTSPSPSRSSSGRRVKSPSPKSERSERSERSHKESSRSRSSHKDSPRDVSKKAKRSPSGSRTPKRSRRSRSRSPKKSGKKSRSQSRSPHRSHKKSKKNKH
UniProt Q6NV83: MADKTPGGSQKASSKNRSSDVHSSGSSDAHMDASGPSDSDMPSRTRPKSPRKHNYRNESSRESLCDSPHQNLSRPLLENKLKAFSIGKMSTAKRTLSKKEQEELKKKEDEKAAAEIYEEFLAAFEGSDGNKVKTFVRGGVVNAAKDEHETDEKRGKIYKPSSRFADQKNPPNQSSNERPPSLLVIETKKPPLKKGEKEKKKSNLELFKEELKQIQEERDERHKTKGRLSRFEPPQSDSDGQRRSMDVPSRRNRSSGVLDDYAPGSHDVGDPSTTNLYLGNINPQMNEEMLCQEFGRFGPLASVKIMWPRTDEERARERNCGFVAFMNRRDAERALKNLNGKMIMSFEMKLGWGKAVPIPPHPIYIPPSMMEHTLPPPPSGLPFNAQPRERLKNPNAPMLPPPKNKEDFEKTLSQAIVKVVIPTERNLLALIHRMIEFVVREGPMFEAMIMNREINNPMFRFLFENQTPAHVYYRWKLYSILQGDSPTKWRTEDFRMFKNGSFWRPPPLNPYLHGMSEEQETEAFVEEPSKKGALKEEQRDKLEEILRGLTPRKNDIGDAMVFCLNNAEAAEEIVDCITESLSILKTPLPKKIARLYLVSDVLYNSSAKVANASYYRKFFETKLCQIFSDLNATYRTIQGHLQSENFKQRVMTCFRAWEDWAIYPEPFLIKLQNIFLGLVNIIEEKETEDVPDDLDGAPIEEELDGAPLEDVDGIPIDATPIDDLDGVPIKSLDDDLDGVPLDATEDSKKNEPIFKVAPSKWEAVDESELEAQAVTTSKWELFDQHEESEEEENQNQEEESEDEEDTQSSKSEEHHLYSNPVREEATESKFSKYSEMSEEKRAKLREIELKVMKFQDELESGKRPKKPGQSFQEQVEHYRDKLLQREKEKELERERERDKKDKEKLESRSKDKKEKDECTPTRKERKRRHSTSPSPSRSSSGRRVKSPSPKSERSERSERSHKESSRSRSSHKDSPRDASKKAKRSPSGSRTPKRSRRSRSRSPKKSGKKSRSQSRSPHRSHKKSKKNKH
UniProt O35286: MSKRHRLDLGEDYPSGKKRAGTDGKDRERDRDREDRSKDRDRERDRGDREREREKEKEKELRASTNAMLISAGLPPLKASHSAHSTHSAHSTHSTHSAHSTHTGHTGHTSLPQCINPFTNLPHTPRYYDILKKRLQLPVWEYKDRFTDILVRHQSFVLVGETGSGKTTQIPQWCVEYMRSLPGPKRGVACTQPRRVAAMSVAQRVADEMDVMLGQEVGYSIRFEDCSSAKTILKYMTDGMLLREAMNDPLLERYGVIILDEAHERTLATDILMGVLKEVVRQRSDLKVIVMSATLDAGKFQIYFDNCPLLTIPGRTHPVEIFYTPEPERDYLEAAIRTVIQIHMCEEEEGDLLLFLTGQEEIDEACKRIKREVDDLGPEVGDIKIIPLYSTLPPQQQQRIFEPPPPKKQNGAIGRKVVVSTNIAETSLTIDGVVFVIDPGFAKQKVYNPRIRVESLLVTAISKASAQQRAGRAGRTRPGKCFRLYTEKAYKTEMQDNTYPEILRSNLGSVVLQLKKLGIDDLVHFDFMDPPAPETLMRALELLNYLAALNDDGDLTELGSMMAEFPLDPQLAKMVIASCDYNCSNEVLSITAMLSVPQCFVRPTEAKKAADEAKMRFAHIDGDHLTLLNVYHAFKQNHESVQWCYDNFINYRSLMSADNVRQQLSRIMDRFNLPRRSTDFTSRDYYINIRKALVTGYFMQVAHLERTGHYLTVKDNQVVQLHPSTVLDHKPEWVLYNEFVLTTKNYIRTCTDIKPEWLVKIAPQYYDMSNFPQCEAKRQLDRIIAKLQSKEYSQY

The target in test [1] is T1, serine threonine kinase receptor-associated protein (STRAP) (mouse (endogenous in mouse ESCs)) (UniProt Q9Z1Z2).
T1 sequence: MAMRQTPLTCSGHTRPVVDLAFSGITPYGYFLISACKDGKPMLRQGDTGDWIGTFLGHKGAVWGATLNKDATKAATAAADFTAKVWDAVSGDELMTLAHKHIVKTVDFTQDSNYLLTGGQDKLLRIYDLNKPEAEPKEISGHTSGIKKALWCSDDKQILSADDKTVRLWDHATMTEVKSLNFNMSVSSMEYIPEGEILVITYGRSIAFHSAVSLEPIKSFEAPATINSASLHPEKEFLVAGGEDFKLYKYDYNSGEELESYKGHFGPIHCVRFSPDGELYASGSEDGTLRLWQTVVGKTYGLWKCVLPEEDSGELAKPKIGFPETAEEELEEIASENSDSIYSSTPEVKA
The experiment in a line: co-IP; anti-STRAP antibody cross-linked to beads, rotated overnight with mouse ESC nuclear extracts, with or without RNase A (100 μg/mL, 15 min) or DNase I (10 U, 30 min, 37 °C); buffer 50 mM Tris-HCl pH 7.5, 150 mM NaCl, 10 mM EDTA; rabbit IgG as negative control; Western blot.

The target in test [2] is T2, CHERP (mouse (endogenous in mouse EBs)) (UniProt Q8CGZ0).
T2 sequence: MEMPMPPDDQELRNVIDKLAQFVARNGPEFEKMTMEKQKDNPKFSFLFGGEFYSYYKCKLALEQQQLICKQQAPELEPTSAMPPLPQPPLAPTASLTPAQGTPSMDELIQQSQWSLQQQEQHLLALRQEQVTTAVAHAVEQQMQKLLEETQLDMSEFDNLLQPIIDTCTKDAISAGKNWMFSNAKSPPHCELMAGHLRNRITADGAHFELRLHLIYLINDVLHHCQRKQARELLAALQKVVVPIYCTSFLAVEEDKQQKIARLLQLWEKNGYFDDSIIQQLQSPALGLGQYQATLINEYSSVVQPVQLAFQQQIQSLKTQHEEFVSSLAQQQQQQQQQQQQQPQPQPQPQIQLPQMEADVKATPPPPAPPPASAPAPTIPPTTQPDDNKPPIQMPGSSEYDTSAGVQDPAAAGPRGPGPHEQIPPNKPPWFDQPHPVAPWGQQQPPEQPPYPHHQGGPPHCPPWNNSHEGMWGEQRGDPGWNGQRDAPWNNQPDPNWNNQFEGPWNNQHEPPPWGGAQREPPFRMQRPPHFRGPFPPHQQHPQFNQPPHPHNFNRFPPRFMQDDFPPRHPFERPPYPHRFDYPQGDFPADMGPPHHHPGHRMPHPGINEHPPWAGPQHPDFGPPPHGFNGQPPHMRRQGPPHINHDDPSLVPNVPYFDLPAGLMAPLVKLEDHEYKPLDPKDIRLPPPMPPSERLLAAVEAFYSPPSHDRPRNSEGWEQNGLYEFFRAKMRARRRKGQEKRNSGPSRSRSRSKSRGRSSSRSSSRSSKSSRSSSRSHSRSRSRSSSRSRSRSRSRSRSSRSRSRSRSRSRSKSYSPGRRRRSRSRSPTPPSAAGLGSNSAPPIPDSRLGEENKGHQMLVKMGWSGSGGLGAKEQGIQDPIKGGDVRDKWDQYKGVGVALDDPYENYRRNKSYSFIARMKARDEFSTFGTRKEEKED
The experiment in a line: co-IP; anti-CHERP antibody; nuclear extracts of WT and Strap KO EBs; Western blot.

Test [3] has as its target T3, SF3B1 (mouse (endogenous in mouse ESCs and EBs)) (UniProt Q99NB9).
T3 sequence: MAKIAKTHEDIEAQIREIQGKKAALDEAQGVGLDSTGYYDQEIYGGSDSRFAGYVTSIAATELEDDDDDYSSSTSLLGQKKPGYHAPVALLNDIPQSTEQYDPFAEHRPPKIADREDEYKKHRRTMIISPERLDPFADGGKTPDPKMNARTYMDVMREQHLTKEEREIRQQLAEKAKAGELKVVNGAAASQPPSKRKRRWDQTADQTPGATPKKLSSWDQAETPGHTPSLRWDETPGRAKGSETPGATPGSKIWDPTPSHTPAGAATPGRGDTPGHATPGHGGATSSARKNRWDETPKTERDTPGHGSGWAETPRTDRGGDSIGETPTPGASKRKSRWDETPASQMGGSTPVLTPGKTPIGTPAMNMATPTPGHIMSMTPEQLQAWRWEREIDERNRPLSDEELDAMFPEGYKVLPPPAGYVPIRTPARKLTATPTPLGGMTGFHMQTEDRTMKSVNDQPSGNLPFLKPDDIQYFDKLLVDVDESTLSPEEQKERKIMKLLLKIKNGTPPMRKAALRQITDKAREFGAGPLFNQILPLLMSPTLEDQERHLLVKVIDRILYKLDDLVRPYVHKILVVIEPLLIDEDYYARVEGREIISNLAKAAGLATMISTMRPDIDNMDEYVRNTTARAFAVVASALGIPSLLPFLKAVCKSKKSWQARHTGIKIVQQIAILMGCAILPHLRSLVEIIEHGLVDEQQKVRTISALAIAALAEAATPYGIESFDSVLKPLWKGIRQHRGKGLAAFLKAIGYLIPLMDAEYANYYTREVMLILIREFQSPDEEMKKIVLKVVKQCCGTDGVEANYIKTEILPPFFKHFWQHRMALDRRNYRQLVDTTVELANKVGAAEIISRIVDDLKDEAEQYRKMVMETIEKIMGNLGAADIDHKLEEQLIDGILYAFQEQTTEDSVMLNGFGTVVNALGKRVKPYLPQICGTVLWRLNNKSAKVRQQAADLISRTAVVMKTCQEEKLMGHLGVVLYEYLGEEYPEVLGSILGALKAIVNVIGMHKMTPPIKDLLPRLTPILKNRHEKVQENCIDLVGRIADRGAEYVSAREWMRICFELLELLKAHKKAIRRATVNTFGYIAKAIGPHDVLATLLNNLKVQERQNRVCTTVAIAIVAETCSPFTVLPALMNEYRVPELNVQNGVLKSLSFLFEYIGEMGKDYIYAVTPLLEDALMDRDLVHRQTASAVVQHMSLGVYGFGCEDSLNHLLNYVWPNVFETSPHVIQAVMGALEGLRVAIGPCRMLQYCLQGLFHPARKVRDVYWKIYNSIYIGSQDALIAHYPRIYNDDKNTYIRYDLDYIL
The experiment in a line: co-IP; anti-SF3B1 antibody cross-linked to beads; nuclear extracts of WT and Strap KO mouse ESCs and EBs; Western blot.

Another test has as its target SR140-HA (UniProt O15042). The experiment in a line: co-IP; HEK293T cells transfected with SR140-HA and Flag-tagged STRAP constructs; lysates immunoprecipitated with anti-HA antibody, blotted with anti-Flag or anti-HA.

These are yes or no findings as the source states them, for the method shown. In cells and extracts the contact can be indirect. Some entries that bind do so weakly or less than the wild type. For some of these results: Where a sequence is shown, tags or fusion partners need not be part of it.

With SR140 (from UniProt Q6NV83 1-1029), the binding result in test [1] and in test [2] was “binds” each time.
DDX15 (from UniProt O35286 1-795): in test [1], the binding result is listed as “no binding”.

B1: U2A’ (protein, UniProt P57784 1-255)
chain: MVKLTAELIEQAAQYTNAVRDRELDLRGYKIPVIENLGATLDQFDAIDFSDNEIRKLDGFPLLRRLKTLLVNNNRICRIGEGLDQALPCLTELILTNNSLVELGDLDPLASLKSLTYLSILRNPVTNKKHYRLYVIYKVPQVRVLDFQKVKLKERQEAEKMFKGKRGAQLAKDIARRSKTFNPGAGLPTDKKKGGPSAGDVEAIKNAIANASTLAEVERLKGLLQSGQIPGRERRSGPSDEGEEEIEDDTVTNGS
Take B1: the binding entry in test [1] and in test [3] was “binds” each time.

B2: TFIIIC110 (protein, UniProt Q8BL74 1-907)
chain: MDTCGVGYVALGEADPVGSMIVVDSPGQEELSQLDVKASETSGVEASIEMSLPPPLPGFEDSSDRRLPPDQESLTRLEQQDLSSEMSKVSNTRASKPSGRRGGRTARGAKRPQQRKPPSTPLVPGLLDQSNPLSTPMPKKRSQKSKGDLLLLKLSKGLDQPESPHPKRPPEDFETPSGERPRRRAAQVALLYLQELAEELSTALPAPPLSGPKSPKVSSPTKPKKTRQASSQGEEDGSARDEDFVLQVEGEDEEESEAPSENSSDPEPVAPRSTPRGPAAGKQKPHCRGMAPNGLPNYIMAPVWKCLHLTKDLREQHHSFWEFAEWIPVAWKWQLLSELEAAPYLPQEEKSPLFSVQREGIPEDGTIYRINRFSSITAHPERWDVSFFTGGPLWALDWCPVPEGSAASQYVALFSSPDMNETHPLSQLHSGPGLLQLWGLGTLQQESCPGNRAHFVYGIACDSGCIWDLKFCPSGAWEHPETLRKAPLLPRLGLLALACSDGKVLLFSLPHPEALLAQQPPDAMKPAIYKVQCLATLQVGSVQASDPSECGQCLSLAWMPTRPHHHLAAGYYNGMVVFWNLPTNSPLQRIRLSDGSLKLYPFQCFLAHDQAVRTIQWCKANSHFLVSAGSDRKIKFWDLRRPYEPINCIKRFLSTELSWLLPYNGVTVAQDNCYASYGLCGIHYIDAGYLGFKAYFTAPRKGTVWSLSGSDWLGTVAAGDISGELIAAILPDMASNPINVKKPAERRFPIYKADLIPYQDSPEDQDYSSTSSETPNPPKARTYTETINHHYLLFQDTDLSSFHNLLRREPMLRMQEGEGHSQLCLDRLQLEAIHKVRFSPNLDSYGWLVSGGQSGLVRIHFVRGLTSPLAHRVQLESRANFNAMFQPSFPTEGPGFSPSSHCLLPNP
In the case of B2, the binding result in test [1] is listed as “binds”.

B3: STRAP-Flag (protein, UniProt Q9Z1Z2 1-350)
chain: T1 sequence
As to B3, in the test with SR140-HA, the binding result is recorded as “binds”.
